Data from PubChem BioAssay AID720504 (National Center for Advancing Translational Sciences (NCATS), 2013).
The whole screen tested about 360,000 compounds, of which about 10,000 (2.8%) were called active. Inconclusive results, whose numbers are uncertain, are shown with a selection of clear calls. The call rests on the fitted dose curve; in most records, active means well fitted inhibition curve with a large enough effect; inconclusive means small, poorly fitted or top-dose-only effect; inactive means flat fitted curve, though single readings scatter. A potency beside an inconclusive call is a rough fit, not a confirmed value.

Amino acid sequences for entries named in this document (tags omitted).
UniProt P53350, whole entry, looked up: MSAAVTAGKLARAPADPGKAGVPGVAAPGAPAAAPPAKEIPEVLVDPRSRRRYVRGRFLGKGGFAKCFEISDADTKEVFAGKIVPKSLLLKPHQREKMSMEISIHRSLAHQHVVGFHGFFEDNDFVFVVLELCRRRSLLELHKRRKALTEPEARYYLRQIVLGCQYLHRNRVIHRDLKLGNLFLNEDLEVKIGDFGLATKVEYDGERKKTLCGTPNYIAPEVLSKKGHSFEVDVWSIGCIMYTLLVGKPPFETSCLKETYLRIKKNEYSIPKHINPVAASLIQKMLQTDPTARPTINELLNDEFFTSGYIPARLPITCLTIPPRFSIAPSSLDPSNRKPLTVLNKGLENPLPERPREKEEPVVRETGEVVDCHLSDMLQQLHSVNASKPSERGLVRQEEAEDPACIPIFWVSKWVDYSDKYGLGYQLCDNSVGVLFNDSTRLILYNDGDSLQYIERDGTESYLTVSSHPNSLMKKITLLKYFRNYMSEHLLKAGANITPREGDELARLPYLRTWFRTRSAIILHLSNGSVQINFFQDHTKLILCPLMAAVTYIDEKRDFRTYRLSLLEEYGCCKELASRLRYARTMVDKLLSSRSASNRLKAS

Each compound was assayed against Serine/threonine-protein kinase PLK1 (Homo sapiens) (UniProt P53350) (assay: qHTS for Inhibitors of PLK1-PDB (polo-like kinase 1 - polo-box domain): Primary Screen). Details: Plk1 PBD binding of FITC phosphopeptide, fluorescence polarization.
Further: nearly all actives have a fitted effect of over 65% in size.
On the % scale 0 is the no-effect control and ±100 the full control effect; potency means the concentration at half of the fitted maximal effect.
Wherever max response, negative = inhibition is given: series mostly up to about 57 µM.

| Structure (SMILES) | Potency | max response, negative = inhibition |
| --- | --- | --- |
| Cc1ccc(S(=O)(=O)N(CC(=O)N/N=C/c2cccc3c2OCCO3)c2ccccc2F)cc1 | inconclusive: 23.8 µM [inhibitor, partial curve] |  |
| COc1ccc(CNC(=S)NCc2ccc(Cl)cc2)cc1OC |  | inactive: -2.57% |
| Cc1ccc(OC(=S)Nc2ccc(O)cc2)cc1 | inconclusive: 33.6 µM [inhibitor, single point] |  |
| CCCNC(=O)NNC(=O)c1ccc(F)cc1 | active: 23.8 µM |  |
| O=C(COc1ccc(/C=C\[N+](=O)[O-])cc1)N1CCOCC1 | inconclusive: 23.8 µM [inhibitor, single point] |  |
| CC(C)C1C(C#N)=C(N)Oc2n[nH]c(-c3ccccc3)c21 (stereo not drawn) |  | inactive: -1.47% |
| Cc1[nH]n(-c2ccc(Cl)c(Cl)c2)c(=O)c1CCO | inconclusive: 26.7 µM [inhibitor, partial curve] |  |
| CC(/C=N/n1c(-c2cccnc2)n[nH]c1=S)=C\c1ccco1 |  | inconclusive: -30.9% [inhibitor] |
| C[C@H](CO)N1C[C@H](C)[C@H](CN(C)Cc2ccc(C(=O)O)cc2)OCc2ccccc2-c2c(n(C)c3ccccc23)C1=O | inconclusive: 67 µM [inhibitor, partial curve] |  |
| CC1(C(=O)NCc2ccccc2)CSCC(=O)N1CCOc1ccccc1 (stereo not drawn) |  | inactive: -12.4% |
| CCNC(=S)Nc1ccc2c(c1)c(=O)n(C)n2Cc1ccc(Cl)cc1 | active: 21.2 µM |  |
| C[C@H](CO)N1C[C@H](C)[C@H](CN(C)Cc2cccc(O)c2)OCc2ccccc2-c2c(n(C)c3ccccc23)C1=O |  | inactive: -10.2% |
| CCn1c(SCC(=O)N/N=C/C=C/c2ccco2)nc2ccccc21 | inconclusive: 29.9 µM [inhibitor, single point] |  |
| CCOC(=O)c1c(-c2ccc(F)cc2)csc1/N=C/N(C)C | inconclusive: 9.47 µM [inhibitor, partial curve] |  |
| O=C1CC(c2ccc(Cl)cc2)CC(O)=C1C=NCCO (stereo not drawn) | inconclusive: 26.7 µM [inhibitor, single point] |  |
| COc1cc(-c2nnc3sc(Cc4ccccc4)nn23)cc(OC)c1OC | active: 26.7 µM |  |
| CCN(CC(=O)NCc1ccc(F)cc1)CC(=O)Nc1ccc(S(=O)(=O)N2CCCC2)cc1 |  | inactive: -3.69% |
| CCN=c1scc(C)n1/N=C/c1cc(Br)c(O)c(Br)c1 | inconclusive: 21.2 µM [inhibitor, single point] |  |
| CCCCCN(C(=O)CCC(=O)OCC(=O)c1cccc(OC)c1)c1c(N)n(CCCC)c(=O)[nH]c1=O |  | inactive: 4.87% |
| COc1cc(C(=S)N2CCOCC2)cc(OC)c1OC(=O)c1cc([N+](=O)[O-])cc([N+](=O)[O-])c1 | inconclusive: 11.9 µM [inhibitor, partial curve] |  |
| Oc1ccc(N=Nc2ccc3c(c2)OCCO3)c2cccnc12 | active: 26.7 µM |  |
| OCCCn1c(-c2ccccc2)csc1=Nc1ccccc1 |  | inactive: 1.22% |
| Cc1nn(-c2ccccc2Cl)c(Cl)c1/C=N/Nc1cccc(C(=O)O)c1 | inconclusive: 26.7 µM [inhibitor, single point] |  |
| CCOC(=O)CC1(NC(=O)C2CCC(=O)N(Cc3ccccc3F)C2)CCCCC1 (stereo not drawn) | active: 26.7 µM |  |
| Cc1ccc(-c2nc(C=Nc3ccc(O)cc3)c(O)o2)cc1 |  | inconclusive: -34.2% [inhibitor] |

Copied from the list.
CCOC(=O)CC1(NC(=O)C2CCC(=O)N(Cc3ccccc3F)C2)CCCCC1 (stereo not drawn) | Potency: active: 26.7 µM
CC(/C=N/n1c(-c2cccnc2)n[nH]c1=S)=C\c1ccco1 | max response, negative = inhibition: inconclusive: -30.9% [inhibitor]
COc1cc(-c2nnc3sc(Cc4ccccc4)nn23)cc(OC)c1OC | Potency: active: 26.7 µM
Cc1[nH]n(-c2ccc(Cl)c(Cl)c2)c(=O)c1CCO | Potency: inconclusive: 26.7 µM [inhibitor, partial curve]
OCCCn1c(-c2ccccc2)csc1=Nc1ccccc1 | max response, negative = inhibition: inactive: 1.22%
C[C@H](CO)N1C[C@H](C)[C@H](CN(C)Cc2ccc(C(=O)O)cc2)OCc2ccccc2-c2c(n(C)c3ccccc23)C1=O | Potency: inconclusive: 67 µM [inhibitor, partial curve]

Continued.

| Structure (SMILES) | Potency | max response, negative = inhibition |
| --- | --- | --- |
| O=C(c1cccs1)N1CCN(S(=O)(=O)c2cccs2)CC1 |  | inactive: 5.22% |
| Cc1cc(/C=N/NC(=O)c2ccc(O)cc2)c(C)n1C1CC1 | active: 18.9 µM |  |
| NNc1cc(C(=O)O)ccc1Cl | inconclusive: 42.3 µM [inhibitor, single point] |  |
| CCC1CCCCN1C(=O)CSc1nnc(-c2cccs2)o1 (stereo not drawn) | inconclusive: 26.7 µM [inhibitor, partial curve] |  |
| Cc1n[nH]c(C)c1C(=O)CC1(O)C(=O)N(CCc2ccccc2)c2ccc(Cl)cc21 (stereo not drawn) | inconclusive: 26.7 µM [inhibitor, single point] |  |
| COn1c2c(c3c4nonc4ccc31)CCCC2 | inconclusive: 23.8 µM [inhibitor, partial curve] |  |
| CC(=O)c1ccc(NC(=O)C(Cc2ccccc2)n2cccc2)cc1 (stereo not drawn) | active: 13.4 µM |  |
| C=CS(=O)(=O)c1ccc(Oc2ccc(S(=O)(=O)C=C)cc2)cc1 | active: 23.8 µM |  |
| N#Cc1c(-c2cccnc2)c2c([nH]c1=S)CCCC2 | active: 11.9 µM |  |
| CCc1c(C)sc(NC(=O)CSc2nc3c(c(C(F)(F)F)n2)CCc2ccccc2-3)c1C#N | inconclusive: 29.9 µM [inhibitor, partial curve] |  |
| CC(=O)Oc1oc(-c2ccccc2)nc1C=Nc1ccccc1 | inconclusive: 23.8 µM [inhibitor, partial curve] |  |
| COc1ccc(N2C(=O)c3ccc(NC(C)=O)cc3C2=O)cc1 |  | inactive: -0.31% |
| Cc1ccc(SCCNC(=S)Nc2cc(C)ccc2C)cc1 |  | inactive: -6.61% |
| COc1ccc(C(C)(NC(C)=O)c2nc(-c3cnc4ccccc4c3)cs2)cc1 (stereo not drawn) |  | inactive: -0.952% |
| C=CCOc1ccc(Br)cc1/C=C1/SC(=Nc2ccc(C(=O)O)cc2)NC1=O | active: 21.2 µM |  |
| S=C(NCc1ccco1)Nc1ccc2c(c1)OCCO2 | inconclusive: 29.9 µM [inhibitor, single point] |  |
| O=C(NC1CCCC1)[C@@H]1CSC2c3ccccc3C(=O)N21 (stereo partly drawn) | inconclusive: 23.8 µM [inhibitor, partial curve] |  |
| Oc1c(C=C2N=c3ccccc3=N2)sc(=S)n1-c1ccc(F)cc1 | inconclusive: 37.7 µM [inhibitor, single point] |  |
| O=C(CS(=O)(=O)c1ccccc1)c1cc2ccccc2oc1=O | inconclusive: 23.8 µM [inhibitor, partial curve] |  |
| O=C(Nc1ccc(Oc2ccc(NC(=O)Nc3ccc([N+](=O)[O-])cc3)cc2)cc1)Nc1ccc([N+](=O)[O-])cc1 | inconclusive: 23.8 µM [inhibitor, single point] |  |
| COc1ccc(-n2c(=O)c3ccccc3n(Cc3ccccc3F)c2=O)cc1OC |  | inactive: -5.99% |
| O=C(NC(=S)NCCCN1CCOCC1)c1ccco1 | inconclusive: 29.9 µM [inhibitor, single point] |  |
| COc1cccc(NC(=O)CSc2nnc(-c3cccc(OC(C)C)c3)n2N)c1 | inconclusive: 21.2 µM [inhibitor, partial curve] |  |
| CCc1ccc(N=C2NC(=O)/C(=C/c3ccc(OCC(=O)O)c(OC)c3)S2)cc1 |  | inconclusive: -33% [inhibitor] |
| O=C(CN1CCOCC1)Nc1ccc2c(c1)OCO2 | active: 10.6 µM |  |

| Structure (SMILES) | Potency | max response, negative = inhibition |
| --- | --- | --- |
| O=C1/C(=C/c2ccncc2)CCC/C1=C\c1ccncc1 | active: 21.2 µM |  |
| COc1ccc(S(=O)(=O)N(C)C)cc1NC(=O)Cc1ccc(S(=O)(=O)N2CCOCC2)s1 |  | inactive: -3.98% |
| CCc1nnc(NS(=O)(=O)c2ccc(NC(=S)NC(=O)/C=C/c3ccc(OC)cc3)cc2)s1 | active: 26.7 µM |  |
| CCOc1ccc(CCNC(=O)CSc2n[nH]c(N)n2)cc1OCC | inconclusive: 29.9 µM [inhibitor, partial curve] |  |
| CC(=O)c1ccc(S(=O)(=O)N2CCNC(=O)C2)cc1 | inconclusive: 29.9 µM [inhibitor, single point] |  |
| Cc1nc(Cl)c(C(=O)NC(C)(C)C)c(C)c1Cl | inconclusive: 26.7 µM [inhibitor, single point] |  |
| Oc1ccc2ccccc2c1CNc1ccccc1 | active: 3.36 µM |  |
| CN1/C(=C/C=C(C#N)C#N)C(C)(C)c2ccccc21 | inconclusive: 4.74 µM [inhibitor, full curve] |  |
| O=C1CN(S(=O)(=O)c2cc(Cl)ccc2Cl)CCN1 | inconclusive: 23.8 µM [inhibitor, partial curve] |  |
| O=C1/C(=C\c2ccccc2)CN(C(=O)CCN2CCCCC2)C/C1=C/c1ccccc1 | inconclusive: 16.8 µM [inhibitor, partial curve] |  |
| CCN1CCN(C(=O)Nc2ccccc2OC)CC1 |  | inactive: -12.5% |
| Cc1ccc2ccc(C)[n+](CCCS(=O)(=O)[O-])c2c1 | inconclusive: 37.7 µM [inhibitor, single point] |  |
| NC(=O)COC(=O)C12CC3CC(CC(O)(C3)C1)C2 | inconclusive: 29.9 µM [inhibitor, single point] |  |
| Cc1nc(-c2ccc(S(=O)(=O)N3CCN(c4cccc(C)c4C)CC3)cc2)co1 | active: 23.8 µM |  |
| CCOC(=O)c1c(NC(=O)c2c(Br)cnn2CC)sc(C)c1C | inconclusive: 29.9 µM [inhibitor, partial curve] |  |
| Nc1nc(Sc2ccc(C(F)(F)F)cn2)n[nH]1 | inconclusive: 37.7 µM [inhibitor, single point] |  |
| Cc1ccc(CNC(=O)CCS(=O)(=O)c2ccc(Br)s2)o1 | inconclusive: 26.7 µM [inhibitor, single point] |  |
| Cc1ccc(NC(=O)c2ocnc2C)cc1Cl | inconclusive: 26.7 µM [inhibitor, single point] |  |
| O=S(=O)(c1cccc(-c2n[nH]c(=S)o2)c1)N1CCOCC1 | active: 26.7 µM |  |
| O=c1oc2cc(O)ccc2c2oc3cc(O)ccc3c12 | inconclusive: 26.7 µM [inhibitor, single point] |  |
| CCOC(=O)c1ccc(NC(=O)c2ccccc2[N+](=O)[O-])cc1 | active: 29.9 µM |  |
| O=C(c1cccs1)c1ccccc1Cc1cccs1 |  | inactive: -5.68% |
| O=S(=O)(c1ccc2nc(-c3ccco3)c(-c3ccco3)nc2c1)N1CCOCC1 | inconclusive: 26.7 µM [inhibitor, single point] |  |
